Test results taken from ChEMBL document CHEMBL5154710, “Discovery of small molecules interacting at lactate dehydrogenases tetrameric interface using a biophysical screening cascade” (Eur J Med Chem, 2022).

Key:
[1] = Inhibition of LDH-5 (unknown origin) assessed as denaturation of LDH-5 using NADH and pyruvate as substrate by spectrophotometric analysis; design: species or system Homo sapiens
[2] = Destabilization of Red-dye-NHS fluorescent-labeled human LDH-5 expressed in Escherichia coli assessed as dissociation constant by MST assay
[3] = Stabilization of Red-dye-NHS fluorescent-labeled human LDH-Htr expressed in Escherichia coli assessed as dissociation constant by MST assay
[4] = Destabilization of Red-dye-NHS fluorescent-labeled human LDH-1 expressed in Escherichia coli assessed as dissociation constant by MST assay

## CNCCCC12CCC(c3ccccc31)c1ccccc12 [MAPROTILINE]
[1]
  IC50: 970 µM
[2]
  Kd: 205 µM
[3]
  Kd: 37 µM
[4]
  Kd: 150 µM
